From PubChem BioAssay AID2685 (National Center for Advancing Translational Sciences (NCATS), 2010)
Some of the results follow. Shown are side measurements of this screen, not its main read-out; they come without a call. The list favours compounds with an active or inconclusive main result. The note in brackets gives the kind of curve behind each potency; many fits are weak.

Experiment: qHTS Assay for Lipid Storage Modulators in Drosophila S3 Cells;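 as to cell number change: cells counted by Cell Tracker Red CMTPX staining in the red channel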
Conditions: BODIPY lipid droplet fluorescence, 18-24 h; for cell number change: measured here: cell count max response, cells fed with added oleic acid
Outline: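 Drosophila S3 cells loaded with oleic acid (400 uM, as added) and compounds at several concentrations; lipid droplets imaged by 488-nm laser-scanning cytometry, 500–530 nm intensity and object ratio to cell channel. Percent activity normalized to 20 uM Triacsin C.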

[1] = measured here: cell number channel AC50, cells fed with added oleic acid
[2] = measured here: lipid fluorescence (Fed channel) AC50, cells fed with added oleic acid

SMILES	cell number change	AC50 [1]	AC50 [2]
O=C(CNC(=O)c1ccccn1)N=Nc1c(O)[nH]c2ccccc12	-41.9%	2.59 µM [falling, partial curve, poor fit]	–
COc1ccc(C(=O)Nc2cccc(-c3nnc(-c4ccco4)o3)c2)cc1	-28.3%	–	6.51 µM [rising, single point]
CCn1cc([N+](=O)[O-])c(C(=O)N2N=C(c3cccc4ccccc34)CC2c2ccccc2O)n1 (centres undefined)	-71%	16.4 µM [falling, partial curve]	25.9 µM [falling, single point]
Cc1cc(C)c(C#N)c(=N)o1	-4.78%	–	–
CCn1c2ccccc2c2nnc(SCC(=O)Nc3ccc4c(c3)OCO4)nc21	-6.21%	–	0.184 µM [rising, full curve, poor fit]
O=C(CN1C(=O)c2ccccc2C1=O)Nc1nccs1	-14.3%	0.146 µM [falling, full curve]	0.13 µM [falling, full curve]
COc1ccc(Cl)cc1C(=O)NCCN(C)C	-77.1%	32.6 µM [falling, partial curve]	0.092 µM [falling, full curve, poor fit]
O=C(CCCSc1nnc(Nc2ccccc2F)s1)N1CCOCC1	27%	6.51 µM [falling, partial curve, poor fit]	–
O=S(=O)(c1ccccc1)N1N=C(c2ccccc2)CC1c1ccccc1 (centres undefined)	-2.18%	–	–
CSc1ccc(S(=O)(=O)NCC(=O)OCC(=O)N(C)CC(=O)Nc2ccccc2Cl)cc1[N+](=O)[O-]	-50%	29.1 µM [falling, single point]	2.91 µM [falling, full curve]
Cc1cc(SCC(=O)c2ccccc2)nc(C)n1	33.9%	29.1 µM [rising, single point]	29.1 µM [rising, single point]
CSCCC(NC(=O)c1ccccc1C)C(=O)O (centres undefined)	-0.135%	–	6.51 µM [rising, partial curve, poor fit]
Cc1ccc(NS(=O)(=O)c2c(C)[nH]c(C)c2C(=O)N2CCCCC2)c(Br)c1	-11.2%	–	29.1 µM [falling, single point]
O=C(c1cccc(C(F)(F)F)c1)N1CCCC1	-171%	23.1 µM [falling, partial curve]	18.4 µM [falling, partial curve]
COc1ccccc1C(=O)N/C(N)=N/c1nc2ccccc2o1	-24.1%	–	0.206 µM [falling, full curve, poor fit]

One compound at a time, as listed above.
COc1ccccc1C(=O)N/C(N)=N/c1nc2ccccc2o1 as listed: cell number change: -24.1%; AC50 [2]: 0.206 µM [falling, full curve, poor fit]
Cc1ccc(NS(=O)(=O)c2c(C)[nH]c(C)c2C(=O)N2CCCCC2)c(Br)c1 as listed: cell number change: -11.2%; AC50 [2]: 29.1 µM [falling, single point]
